{
  "source": "paper PMC4641600",
  "about": "“Novel Activities of Select NSAID R-Enantiomers against Rac1 and Cdc42 GTPases” (PLoS ONE, 2015)",
  "origin": "cited, not measured here",
  "conditions": "typical oral dosing (S-Naproxen 500 mg; 6-MNA 750-20000 mg of nabumetone); ref Roche Investigator’s brochure, 9, 10, 17-19, 21, 23; cited from earlier work",
  "data": [
    {"smiles": "COc1ccc2cc([C@H](C)C(=O)O)ccc2c1", "note": "[S-naproxen]", "values": [
      {"measurement": "Serum Cmax", "value": 97.4, "unit": "µg/mL"}
    ]}
  ]
}
